Results are given in words; binding and its absence hold for the method and conditions named. In cells and extracts the contact can be indirect. Some binding calls cover weakened binding; strength is not graded here.
Target: T1, Signal transducer and activator of transcription 1 (STAT1) (mouse (endogenous in RAW264.7)) (UniProt P42225)
T1 sequence: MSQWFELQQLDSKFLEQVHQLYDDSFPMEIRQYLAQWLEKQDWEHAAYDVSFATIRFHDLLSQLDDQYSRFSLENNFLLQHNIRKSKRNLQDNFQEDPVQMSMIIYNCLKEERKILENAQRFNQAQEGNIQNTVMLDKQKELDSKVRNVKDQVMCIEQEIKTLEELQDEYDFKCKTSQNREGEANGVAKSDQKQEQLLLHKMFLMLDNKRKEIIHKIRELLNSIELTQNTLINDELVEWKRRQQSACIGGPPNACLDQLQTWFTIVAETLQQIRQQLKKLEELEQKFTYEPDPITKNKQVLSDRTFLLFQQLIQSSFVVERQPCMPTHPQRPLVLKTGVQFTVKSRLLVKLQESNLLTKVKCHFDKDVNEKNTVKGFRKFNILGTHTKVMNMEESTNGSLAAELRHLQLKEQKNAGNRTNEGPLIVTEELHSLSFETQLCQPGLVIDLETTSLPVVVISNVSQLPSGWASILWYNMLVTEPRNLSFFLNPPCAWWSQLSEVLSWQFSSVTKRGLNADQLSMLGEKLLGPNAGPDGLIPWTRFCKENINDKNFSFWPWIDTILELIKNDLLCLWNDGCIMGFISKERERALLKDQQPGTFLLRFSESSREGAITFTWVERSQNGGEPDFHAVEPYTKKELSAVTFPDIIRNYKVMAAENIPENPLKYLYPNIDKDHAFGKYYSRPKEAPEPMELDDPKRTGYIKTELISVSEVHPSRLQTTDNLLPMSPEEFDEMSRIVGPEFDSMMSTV
Experiment: co-IP; RAW264.7 cells treated with LPS + IFN-gamma, with or without oxamate and with or without MG-132; 200 ug total cellular proteins with 2 ug antibody overnight at 4 C, protein A/G magnetic beads; IP with TRIM21 antibody and STAT1 blot, and IP with STAT1 antibody and TRIM21 blot

B1: Tripartite-motif protein 21 (TRIM21) (protein, UniProt Q62191 1-470)
chain: MSPSTTSKMSLEKMWEEVTCSICLDPMVEPMSIECGHCFCKECIFEVGKNGGSSCPECRQQFLLRNLRPNRHIANMVENLKQIAQNTKKSTQETHCMKHGEKLHLFCEEDGQALCWVCAQSGKHRDHTRVPIEEAAKVYQEKIHVVLEKLRKGKELAEKMEMDLTMQRTDWKRNIDTQKSRIHAEFALQNSLLAQEEQRQLQRLEKDQREYLRLLGKKEAELAEKNQALQELISELERRIRGSELELLQEVRIILERSGSWNLDTLDIDAPDLTSTCPVPGRKKMLRTCWVHITLDRNTANSWLIISKDRRQVRMGDTHQNVSDNKERFSNYPMVLGAQRFSSGKMYWEVDVTQKEAWDLGVCRDSVQRKGQFSLSPENGFWTIWLWQDSYEAGTSPQTTLHIQVPPCQIGIFVDYEAGVVSFYNITDHGSLIYTFSECVFAGPLRPFFNVGFNYSGGNAAPLKLCPLKM
binding: binds
